{"source": "PubChem BioAssay AID743456 | Peter MacCallum Cancer Centre – 2014", "test": "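Identify miRNAs tied to vorinostat resistance or sensitivity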 (primary screen)", "cell system": "human HCT116-VR colon cancer cells, a vorinostat-resistant HCT116 line", "reagents": "miRNA mimic", "duration": "about 3 days from transfection to readout; drug present for the last 24 h", "conditions": "vorinostat at 2.5 µM final for 24 h", "measured": "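Cell viability from CellTiter-Fluor signal and caspase activity from luminescence after 24 h vorinostat at 2.5 µM, given as robust z-scores and as ratios to mock-transfected wells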", "reading the numbers": "viability robust z-score: higher = more viable cells; caspase robust z-score: higher = more caspase activity, more apoptosis", "call rule": "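Active when viability drops or caspase activity climbs beyond robust z thresholds, with wells of poor cell health excluded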", "note": "The whole screen tested 878 reagents; shown is a part drawn at random. Of all reagents, 27 (3.1%) got an active call. 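27 mimics are marked active, unlike an earlier stated count of 24; the viability threshold is described inconsistently.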 Not all columns of the deposit are shown. Not stated in the record: the amount of reagent."}
{"microRNA": "hsa-miR-532-3p", "viability robust z-score": -0.86, "caspase robust z-score": -1.12, "viability hit class": "no change", "caspase hit class": "no change", "activity call": "inactive"}
{"microRNA": "hsa-miR-556-5p", "viability robust z-score": 1.12, "caspase robust z-score": 0.57, "viability hit class": "no change", "caspase hit class": "no change", "activity call": "inactive"}
{"microRNA": "hsa-miR-381", "viability robust z-score": 0.72, "caspase robust z-score": -0.68, "viability hit class": "no change", "caspase hit class": "no change", "activity call": "inactive"}
{"microRNA": "hsa-miR-624", "viability robust z-score": -1.48, "caspase robust z-score": 1.09, "viability hit class": "no change", "caspase hit class": "no change", "activity call": "inactive"}
{"microRNA": "hsa-miR-138-1*", "viability robust z-score": -0.03, "caspase robust z-score": -0.8, "viability hit class": "no change", "caspase hit class": "no change", "activity call": "inactive"}
{"microRNA": "hsa-miR-514", "viability robust z-score": 1.18, "caspase robust z-score": -0.15, "viability hit class": "no change", "caspase hit class": "no change", "activity call": "inactive"}

An excerpt of the results above, for reference:
{"microRNA": "hsa-miR-556-5p", "viability robust z-score": 1.12, "caspase robust z-score": 0.57, "viability hit class": "no change", "caspase hit class": "no change", "activity call": "inactive"}
{"microRNA": "hsa-miR-381", "viability robust z-score": 0.72, "caspase robust z-score": -0.68, "viability hit class": "no change", "caspase hit class": "no change", "activity call": "inactive"}

More entries:
{"microRNA": "hsa-miR-27b", "viability robust z-score": -2.04, "caspase robust z-score": -0.1, "viability hit class": "no change", "caspase hit class": "no change", "activity call": "inactive"}
{"microRNA": "hsa-miR-574-5p", "viability robust z-score": 0.08, "caspase robust z-score": 0.24, "viability hit class": "no change", "caspase hit class": "no change", "activity call": "inactive"}
{"microRNA": "hsa-miR-663", "viability robust z-score": 0.22, "caspase robust z-score": -0.59, "viability hit class": "no change", "caspase hit class": "no change", "activity call": "inactive"}
{"microRNA": "hsa-miR-1225-5p", "viability robust z-score": 0.66, "caspase robust z-score": -0.28, "viability hit class": "no change", "caspase hit class": "no change", "activity call": "inactive"}
{"microRNA": "hsa-miR-590-3p", "viability robust z-score": 0.5, "caspase robust z-score": -0.5, "viability hit class": "no change", "caspase hit class": "no change", "activity call": "inactive"}
{"microRNA": "hsa-miR-335", "viability robust z-score": 0.19, "caspase robust z-score": -0.78, "viability hit class": "no change", "caspase hit class": "no change", "activity call": "inactive"}
